According to PubChem BioAssay AID1794844 (National Center for Advancing Translational Sciences (NCATS), 2023):
Fewer than 10 of roughly 2,800 compounds were called active. Roughly 7% stayed inconclusive and do not appear here. The call rests on the fitted dose curve; in most records, active means well fitted inhibition curve with a large enough effect; inconclusive means small, poorly fitted or top-dose-only effect; inactive means no such curve, though single readings can be large or run the other way. This is one part of the list.

Amino acid sequences for entries named in this document (tags omitted). A change or cut given only in a name is not applied to a line headed by its entry.
UniProt C7C422: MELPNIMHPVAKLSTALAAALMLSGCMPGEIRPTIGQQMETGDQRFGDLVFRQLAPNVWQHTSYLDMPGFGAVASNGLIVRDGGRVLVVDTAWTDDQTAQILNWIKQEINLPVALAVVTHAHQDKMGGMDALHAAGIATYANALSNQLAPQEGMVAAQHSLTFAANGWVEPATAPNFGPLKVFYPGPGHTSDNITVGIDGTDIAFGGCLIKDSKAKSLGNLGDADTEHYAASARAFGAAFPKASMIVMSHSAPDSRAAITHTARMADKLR

Target: Metallo-beta-lactamase type 2 (Klebsiella pneumoniae) (UniProt C7C422)
Test: qHTS to identify inhibitors of the New Delhi Metallo-beta-lactamase (NDM): Nitrocefin screen against the machine-based learning selections. Further: % of control where 0% means no effect.
Settings: NDM-1 enzyme, nitrocefin hydrolysis, absorbance 485 nm; activity, negative = inhibition: at the top concentration
In short: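 Hydrolysis by 2 nM NDM-1 was followed by absorbance after >30 min compound preincubation in HEPES pH 7.0 buffer with 1 uM Zn2SO4. For nitrocefin (16.7 uM, 15 min, 485 nm) and meropenem (50 uM, 30 min, 300 nm), each substrate ran on separate plates.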

activity, negative = inhibition, inactive:
N[C@@H]1CCN(Cc2ccccc2OCc2ccc(Cl)cc2)C[C@H]1O 12.1%
COC(=O)[C@@H]1Cc2ncn(C(C)C)c2CN1S(=O)(=O)c1ccc(OC)cc1 -1.26% [at 57.5 µM]
O=C(O)CCC(=O)N[C@H]1CCN2C(=O)c3cc(-c4ccc(Cl)cc4)ccc3NC(=O)[C@H]12 -0.154% [at 57.5 µM]
Cc1cc(C)n(C2CCN(c3ncnc4c3c(C)nn4C)C2)n1 (centres undefined) -26.2%
COc1nc2c(cc1CNC(=O)C1CCOC1)C(=O)N(CCc1ccccn1)C2 (centres undefined) -6.59%
O=C1N(C2CCCCC2)C[C@H]2CN(Cc3cccc(Cl)c3)CCN12 9.31% [at 57.5 µM]
Cc1ccc(NC(=O)Cn2c(-c3ccc(F)cc3)nc(C)c(CCO)c2=O)cc1Cl -1.88%
Cc1cc(=O)n(CC(=O)Nc2ccc(N(C)C)cc2)c(-c2ccc(Cl)cc2)n1 2.25%
OC(c1cccc(C(F)(F)F)c1)c1nc(Nc2cccnc2)n[nH]1 (centres undefined) 3.42% [at 57.5 µM]
Cc1ccc(C(=O)NC2CCN(c3cn[nH]c(=O)c3)CC2)cc1C -2.26%
COc1ccc(-c2cnc3[nH]cc(CC(=O)NC4CCC(O)CC4)c3c2)cc1 (centres undefined) 32.5% [at 57.5 µM]
O=C(NC[C@H]1OC[C@@H](NCc2ncc[nH]2)[C@@H]1O)C1CCCC1 -0.682% [at 57.5 µM]
OCc1ccc(CN2CC[C@@H](c3ccc4ccccc4c3)[C@H](O)C2)o1 -5.95%
c1cc(CN2CCNc3cc(-c4ccsc4)ncc3C2)ccn1 11% [at 57.5 µM]
COC[C@H]1CCCN1C(=O)CC[C@H]1CNC(=O)[C@@H]2[C@@H](CCN2Cc2cccs2)N1C -11.5% [at 57.5 µM]
COCCC(=O)NCC12CCC=C1N(CC1CC1)C(=O)CC2 (centres undefined) -1.2%
COc1ccc(NC(=O)Cc2c[nH]c3ncc(-c4ccccc4)cc23)cn1 7.71% [at 57.5 µM]
O=C(Cc1c[nH]c2ncc(-c3ccsc3)cc12)NCc1cccnc1 -5.95% [at 57.5 µM]
O=C(Nc1ccc(F)c(Cl)c1)N1CCCC(Cn2c(C3CC3)nc3cccnc32)C1 (centres undefined) 4.6%
COc1ccc(C(=O)N2CC[C@@H](CC(=O)O)[C@@H](CCN3CCN(c4ccccn4)CC3)C2)cc1 -10.6%
NCCn1cc(C(=O)N2CCCC(c3[nH]ncc3Cc3ccccc3)C2)nn1 (centres undefined) -26%
O=C1Nc2cc(Cl)ccc2C(=O)N2CCN(C(=O)c3ccccc3)C[C@H]12 -14.3% [at 57.5 µM]
COc1cccc(Nc2cc3[nH]ccc3c(C(=O)NCc3c(C)cc(C)[nH]c3=O)n2)c1 -7.58% [at 57.5 µM]
CSc1ncccc1C(=O)NC1CCCN(CCCc2ccccc2)C1 (centres undefined) 9.24%
COCC(=O)Nc1ccc([C@@H](O)[C@H]2COCC(=O)N2Cc2ccccc2F)cc1 -0.524% [at 57.5 µM]
Cc1nnnn1Cc1ccc(C(=O)N2CCc3nc(-c4cn[nH]c4)[nH]c3C2)cc1 -0.17%
NC(=O)c1cccc(-c2n[nH]c3c2CC(=O)N(Cc2ccccc2)C3)c1 -2.75% [at 57.5 µM]
O=C(NCc1nnc2ccc(-c3ccccc3)nn12)c1cc(F)ccc1Cl -9.4%
CCCNC(=O)N1CC(c2noc(C3CCCN3CC3CC3)n2)C1 (centres undefined) -6.34%
CCOc1cc(C(=O)N2CCN(c3cc(-c4ccc(Cl)cc4)[nH]n3)CC2)cc(OCC)c1OCC 0.47%
Cc1nc(-c2c3n(c(=O)n(Cc4cccc(Cl)c4)c2=O)CCCCC3)no1 0.916%
CC(C)CCCC(=O)N1C[C@@H](C(=O)O)C[C@@H](C(=O)NCc2ccncc2)C1 27.5%
Cc1ccc(-c2nnc([C@H]3CCN(Cc4ccc(CO)o4)C3)o2)cc1 -0.283% [at 57.5 µM]
C[C@@H](NC(=O)C1CC1)c1onc(-c2ccc(F)cc2)c1C(=O)O 3.4% [at 57.5 µM]
O=C(NC1CCC(O)CC1)C1CCCN(c2nc(-c3ccccc3)nc3c2CCC3)C1 (centres undefined) 3.71%
Cc1ccncc1C(=O)N1CCC2(CC1)CC(c1ccccc1)C(=O)N2C (centres undefined) 4.16%
O=C(Cc1c[nH]c2ncc(-c3cccnc3)cc12)NC1CCOCC1 -14.5% [at 57.5 µM]
O=c1ncn(Cc2ccccc2)c2ccc(-c3ccc(O)c(F)c3)nc12 4.77% [at 57.5 µM]
Cn1cc(C(NC(=O)c2ccc3c(c2)ncn3CCO)C2CC(O)C2)cn1 (centres undefined) -11.3%
C[C@H](O)c1c(-c2ccc(Cl)cc2)noc1C(=O)NC1CC1 3.68% [at 57.5 µM]
CC(C)(O)CCc1cccc(C(=O)NCCNc2cccnc2)c1 -9.84%
O=C(Nc1cccc(C(F)(F)F)c1)N[C@@H]1C[C@H](CO)[C@@H](O)[C@H]1O -6.93% [at 57.5 µM]
CC(C)CCNC(=O)c1cc(-c2ccncc2)cn1C 2.59%
CCc1ncc(C(=O)Nc2nn(CC(F)(F)F)c3cc(OC(C)C)ccc23)cn1 -9.36%
Cc1cc(C(=O)N[C@H](C)c2onc(C)c2C(=O)O)c(C)o1 2.27% [at 57.5 µM]
C[S+](=O)([O-])CCn1ncc2cc(OCc3cccc(-c4ccccc4O)c3)ccc21 -4.12% [at 57.5 µM]
CC(C)CCN1CCNC(=O)C1CC(=O)N(Cc1nccs1)C1CC1 (centres undefined) -9.28%
COc1ccc(CN2CC[C@@H]3[C@H]2C(=O)NC[C@H](CCC(=O)NCc2ccc(F)cc2)N3C)cc1 -2.38%
CCn1nc(C)cc1C(=O)N1CCOC[C@H](Oc2cccnc2)C1 -8.67% [at 57.5 µM]
Cn1c(CN2CCOCC2)nnc1C1CCCN(S(=O)(=O)C2CC2)C1 (centres undefined) 5.95%
COc1ccccc1C(=O)NC1CCN(c2ccc(C)cc2)C1=O (centres undefined) 2.33%
Cc1noc2c(Nc3ccc(C(N)=O)cc3)cc(-c3cccnc3)nc12 12.5% [at 57.5 µM]
O=C(CN1C(=O)CNC1=O)NCCc1noc(-c2ccccc2)n1 0.866%
Cc1ccc(-c2cnc([C@@H]3COCCN3Cc3ccccc3F)[nH]2)cc1 -12.1% [at 57.5 µM]
CC(C)c1cccc(NC(=O)c2ccc3c(c2)N(C)C2CCCCN2C3=O)c1 (centres undefined) -3.6%
COc1ccc(CN2C(=O)CO[C@H]3CN(C4CCOCC4)C[C@H]32)cc1 -2.35% [at 57.5 µM]
CN1C[C@H](C(=O)NCc2ccncc2)C[C@H]1c1cccc(C(F)(F)F)c1 0.278% [at 57.5 µM]
CC(C)(O)CCc1cccc(C(=O)N(Cc2ccc3c(c2)OCO3)C2CC2)c1 -5.98%
c1ccc(Nc2ncc(-c3ccccc3)c3c2OCC3)cc1 1.17% [at 76.7 µM]
CC1(C(=O)NCc2cnccn2)CCCc2cnc(NCc3ccccc3)nc21 (centres undefined) -5.69% [at 57.5 µM]
O=C1N[C@H](CCC(=O)N2CCN(Cc3ccccc3)CC2)C(=O)Nc2ccccc21 0.58%
Cc1cc2c(cc1C(=O)N[C@H](c1ccccn1)C1CC(O)C1)OCCO2 (some centres undefined) -0.47%
O=C(NCCc1nccc(-c2ccccc2)n1)[C@H]1CCC[C@H](O)C1 -12.7%
O=[N+]([O-])c1ccccc1CN1C[C@H](O)C[C@H]1c1nc(-c2ccncc2)no1 4.16% [at 57.5 µM]

Eleven compounds from above, arranged by molecular weight, low to high.
activity, negative = inhibition, inactive:
Cc1cc(C(=O)N[C@H](C)c2onc(C)c2C(=O)O)c(C)o1 2.27% [at 57.5 µM]
C[C@H](O)c1c(-c2ccc(Cl)cc2)noc1C(=O)NC1CC1 3.68% [at 57.5 µM]
c1cc(CN2CCNc3cc(-c4ccsc4)ncc3C2)ccn1 11% [at 57.5 µM]
COc1ccccc1C(=O)NC1CCN(c2ccc(C)cc2)C1=O (centres undefined) 2.33%
Cc1cc2c(cc1C(=O)N[C@H](c1ccccn1)C1CC(O)C1)OCCO2 (some centres undefined) -0.47%
Cc1ccncc1C(=O)N1CCC2(CC1)CC(c1ccccc1)C(=O)N2C (centres undefined) 4.16%
Cn1c(CN2CCOCC2)nnc1C1CCCN(S(=O)(=O)C2CC2)C1 (centres undefined) 5.95%
NCCn1cc(C(=O)N2CCCC(c3[nH]ncc3Cc3ccccc3)C2)nn1 (centres undefined) -26%
Cc1nnnn1Cc1ccc(C(=O)N2CCc3nc(-c4cn[nH]c4)[nH]c3C2)cc1 -0.17%
Cc1cc(=O)n(CC(=O)Nc2ccc(N(C)C)cc2)c(-c2ccc(Cl)cc2)n1 2.25%
C[S+](=O)([O-])CCn1ncc2cc(OCc3cccc(-c4ccccc4O)c3)ccc21 -4.12% [at 57.5 µM]
